Results as given in publication PMC4919469.
These are yes or no findings as the source states them, for the method shown. Some binding calls cover weakened binding; strength is not graded here. For some of these results: Where a sequence is shown, tags or fusion partners need not be part of it.

The chains behind the UniProt entries cited, without tags or fusion partners. Where a name states a change or a piece, a line headed by the entry shows the natural chain unless it says otherwise. A line that says so, or that is headed by a name, gives the form on record, which may keep a tag or linker. Residues count along the entry.
Cdc42Δ7Q61L (P60953, form named): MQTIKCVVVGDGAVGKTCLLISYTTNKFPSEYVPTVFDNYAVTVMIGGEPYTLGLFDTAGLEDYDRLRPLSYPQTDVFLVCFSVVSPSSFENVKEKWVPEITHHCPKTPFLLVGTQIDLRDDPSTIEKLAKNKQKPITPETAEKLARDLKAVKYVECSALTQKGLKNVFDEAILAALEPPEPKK
UniProt Q6NX29, residues 197-255: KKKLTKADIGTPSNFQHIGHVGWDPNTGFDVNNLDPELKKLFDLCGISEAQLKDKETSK

What was measured:
Cdc42Δ7Q61L (human) = Cdc42Δ7Q61L (human) (UniProt P60953); assay: NMR titration; 15N and 13C HSQC at 25 °C in 50 mM sodium phosphate, pH 5.5, 25 mM NaCl, 5 mM MgCl2, 5 mM DTT, 10% D2O; 15N-HR1 with unlabelled Cdc42Δ7Q61L·GMPPNP, or 15N-Cdc42Δ7Q61L·GMPPNP with unlabelled HR1 and/or N-WASP GBD; both purified
[1] = target: T1, His-SNAP-TOCA1 (full-length X. tropicalis TOCA1) (Xenopus tropicalis) (UniProt Q6GUF4); assay: scintillation proximity assay; direct binding; 30 nM GST-PAK, GST-ACK or His-tagged TOCA1 construct attached to a fluoromicrosphere via an anti-GST or anti-His antibody; Cdc42·[3H]GTP at increasing concentrations; apparent Kd from a direct binding isotherm; both purified
T1 sequence: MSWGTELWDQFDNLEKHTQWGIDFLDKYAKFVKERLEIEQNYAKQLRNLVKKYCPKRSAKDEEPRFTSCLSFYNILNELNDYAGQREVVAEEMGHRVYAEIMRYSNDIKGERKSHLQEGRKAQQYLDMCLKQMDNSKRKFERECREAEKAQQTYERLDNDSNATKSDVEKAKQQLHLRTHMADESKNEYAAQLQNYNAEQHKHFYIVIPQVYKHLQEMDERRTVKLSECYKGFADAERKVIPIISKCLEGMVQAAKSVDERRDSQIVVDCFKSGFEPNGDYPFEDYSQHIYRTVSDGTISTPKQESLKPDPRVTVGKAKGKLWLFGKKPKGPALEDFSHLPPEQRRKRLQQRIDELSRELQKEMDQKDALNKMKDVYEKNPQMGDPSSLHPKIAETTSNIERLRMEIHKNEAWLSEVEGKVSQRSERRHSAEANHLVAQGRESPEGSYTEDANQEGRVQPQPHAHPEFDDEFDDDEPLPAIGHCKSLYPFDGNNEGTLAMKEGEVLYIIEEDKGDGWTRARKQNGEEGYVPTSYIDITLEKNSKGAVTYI

[2] = target: T2, His-SNAP-TOCA1 ΔSH3 (residues 1–480) (Xenopus tropicalis) (UniProt Q6GUF4); assay: as above
T2 sequence: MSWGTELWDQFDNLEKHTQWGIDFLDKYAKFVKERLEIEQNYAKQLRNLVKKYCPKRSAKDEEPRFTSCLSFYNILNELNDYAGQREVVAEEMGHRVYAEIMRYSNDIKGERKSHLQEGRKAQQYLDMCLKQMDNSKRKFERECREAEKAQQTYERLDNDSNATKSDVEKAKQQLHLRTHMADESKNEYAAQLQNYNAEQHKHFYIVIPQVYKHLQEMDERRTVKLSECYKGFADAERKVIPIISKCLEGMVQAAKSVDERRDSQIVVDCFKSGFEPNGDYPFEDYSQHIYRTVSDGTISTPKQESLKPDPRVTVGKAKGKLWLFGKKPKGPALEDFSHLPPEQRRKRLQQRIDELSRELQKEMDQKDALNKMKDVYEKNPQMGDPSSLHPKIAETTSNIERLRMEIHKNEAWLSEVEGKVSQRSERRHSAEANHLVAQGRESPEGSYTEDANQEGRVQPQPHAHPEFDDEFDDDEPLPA

[3] = target: T3, His-SNAP-TOCA1 F-BAR (residues 1–287) (Xenopus tropicalis) (UniProt Q6GUF4); assay: as above
T3 sequence: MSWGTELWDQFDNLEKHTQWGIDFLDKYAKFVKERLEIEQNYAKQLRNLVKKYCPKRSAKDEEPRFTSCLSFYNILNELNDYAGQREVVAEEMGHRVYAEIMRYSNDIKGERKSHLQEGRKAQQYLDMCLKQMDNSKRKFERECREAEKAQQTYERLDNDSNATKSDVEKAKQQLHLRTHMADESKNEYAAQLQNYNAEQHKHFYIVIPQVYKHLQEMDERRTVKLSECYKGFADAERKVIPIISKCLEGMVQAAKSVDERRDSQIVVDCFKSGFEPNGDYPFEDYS

| binding (Cdc42Δ7Q61L (human)) | binding [1] | binding [2] | binding [3] | Substance |
| --- | --- | --- | --- | --- |
| binds | – | – | – | N-WASP G protein-binding domain (GBD) (residues 197–255) (from UniProt Q6NX29 197-255) (domain or fragment) |
| – | binds weakly | binds weakly | no binding | Cdc42Δ7Q61L (from UniProt P60953 1-184) (domain or fragment) |
